Results published in patent US20110171242A1.
Results are given in words; binding and its absence hold for the method and conditions named. Some binding calls cover weakened binding; strength is not graded here.

Protein sequences, listed by entry. Tags and fused reporters are not part of them. Residues count along the entry.
UniProt P19438, residues 30-211: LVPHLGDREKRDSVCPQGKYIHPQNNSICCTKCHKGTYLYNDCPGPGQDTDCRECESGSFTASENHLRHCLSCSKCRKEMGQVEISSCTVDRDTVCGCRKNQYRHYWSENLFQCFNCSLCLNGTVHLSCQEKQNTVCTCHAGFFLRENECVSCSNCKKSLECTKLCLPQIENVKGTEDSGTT

Key:
LTα homotrimer [1] = biological target: T1, LTα homotrimer (UniProt P01374); assay: successive TNFR60:Fc and HVEM:Fc affinity steps
T1 sequence (looked up): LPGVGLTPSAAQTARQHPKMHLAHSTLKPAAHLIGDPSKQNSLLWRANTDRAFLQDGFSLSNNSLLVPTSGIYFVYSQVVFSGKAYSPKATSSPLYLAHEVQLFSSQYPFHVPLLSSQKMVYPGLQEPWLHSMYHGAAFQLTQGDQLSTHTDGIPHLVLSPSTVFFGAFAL

LTα homotrimer [2] = biological target: T1, LTα homotrimer; assay: 2D electrophoresis of proteins bound to TNFR60:Fc
LTα homotrimer [3] = biological target: T1, LTα homotrimer; assay: affinity purification from 35S-labelled II-23.D7 extract, 2D electrophoresis
LTα homotrimer [4] = biological target: T1, LTα homotrimer; assay: precipitation of 35S-labelled proteins with receptor:Fc and protein G, SDS-PAGE

Measured: binding

TNFR60:Fc (from UniProt P19438 30-211) (Fc fusion)
binds: all assays above
